According to the supplement of paper PMC8728848:
Some of the results follow.

What was measured:
Test in all cases: glycan array binding signal (z-score within array); higher = stronger binding
Details in all cases: glycan notation: IUPAC condensed, linker removed
[1] = target: GlcNAc(a1-6)Gal(b1-4)GlcNAc
In short: (§1)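 Glycan array data came from 3228 arrays in the Consortium for Functional Glycomics database, and only arrays with an available protein sequence were kept. Glycan names were put into IUPAC-condensed notation, and columns mapping to the same glycan were averaged. The binding signal is a within-array Z-score, averaged across arrays of one protein sequence run at different concentrations or buffers and across linkers. A negative Z-score can be read as non-binding.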

[2] = target: GlcNAc(b1-2)Gal(b1-3)GalNAc
In short: as §1

[3] = target: GlcNAc(b1-2)Man(a1-3)[GlcNAc(b1-2)Man(a1-6)]Man(b1-4)GlcNAc(b1-4)GlcNAc
In short: as §1

[4] = target: GlcNAc(b1-2)Man(a1-3)[GlcNAc(b1-2)Man(a1-6)]Man(b1-4)GlcNAc(b1-4)[Fuc(a1-6)]GlcNAc
In short: as §1

[5] = target: GlcNAc(b1-2)Man(a1-3)[GlcNAc(b1-4)][GlcNAc(b1-2)Man(a1-6)]Man(b1-4)GlcNAc(b1-4)GlcNAc
In short: as §1

[6] = target: GlcNAc(b1-2)Man(a1-3)[GlcNAc(b1-4)][GlcNAc(b1-2)Man(a1-6)]Man(b1-4)GlcNAc(b1-4)[Fuc(a1-6)]GlcNAc
In short: as §1

[7] = target: GlcNAc(b1-2)[GlcNAc(b1-4)]Man(a1-3)[GlcNAc(b1-2)Man(a1-6)]Man(b1-4)GlcNAc(b1-4)GlcNAc
In short: as §1

[8] = target: GlcNAc(b1-2)[GlcNAc(b1-4)]Man(a1-3)[GlcNAc(b1-4)][GlcNAc(b1-2)Man(a1-6)]Man(b1-4)GlcNAc(b1-4)GlcNAc
In short: as §1

[9] = target: GlcNAc(b1-2)[GlcNAc(b1-4)]Man(a1-3)[GlcNAc(b1-4)][GlcNAc(b1-2)[GlcNAc(b1-6)]Man(a1-6)]Man(b1-4)GlcNAc(b1-4)GlcNAc
In short: as §1

[10] = target: GlcNAc(b1-2)[GlcNAc(b1-4)]Man(a1-3)[GlcNAc(b1-4)][GlcNAc(b1-2)[GlcNAc(b1-6)]Man(a1-6)]Man(b1-4)GlcNAc(b1-4)[Fuc(a1-6)]GlcNAc
In short: as §1

[11] = target: GlcNAc(b1-2)[GlcNAc(b1-6)]Man(a1-6)[GlcNAc(b1-2)Man(a1-3)]Man(b1-4)GlcNAc(b1-4)GlcNAc
In short: as §1

[12] = target: GlcNAc(b1-2)[GlcNAc(b1-6)]Man(a1-6)[GlcNAc(b1-2)Man(a1-3)]Man(b1-4)GlcNAc(b1-4)[Fuc(a1-6)]GlcNAc
In short: as §1

[13] = target: GlcNAc(b1-2)[GlcNAc(b1-6)]Man(a1-6)[GlcNAc(b1-4)][GlcNAc(b1-2)Man(a1-3)]Man(b1-4)GlcNAc(b1-4)GlcNAc
In short: as §1

[14] = target: GlcNAc(b1-3)Fuc
In short: as §1

[15] = target: GlcNAc(b1-3)Gal
In short: as §1

[16] = target: GlcNAc(b1-3)Gal(b1-3)GalNAc
In short: as §1

[17] = target: GlcNAc(b1-3)Gal(b1-4)Glc
In short: as §1

[18] = target: GlcNAc(b1-3)Gal(b1-4)GlcNAc
In short: as §1

[19] = target: GlcNAc(b1-3)Gal(b1-4)GlcNAc(b1-2)Man(a1-3)[GlcNAc(b1-3)Gal(b1-4)GlcNAc(b1-2)Man(a1-6)]Man(b1-4)GlcNAc(b1-4)GlcNAc
In short: as §1

[20] = target: GlcNAc(b1-3)Gal(b1-4)GlcNAc(b1-2)Man(a1-3)[GlcNAc(b1-3)Gal(b1-4)GlcNAc(b1-2)Man(a1-6)]Man(b1-4)GlcNAc(b1-4)[Fuc(a1-6)]GlcNAc
In short: as §1

[21] = target: GlcNAc(b1-3)Gal(b1-4)GlcNAc(b1-2)[GlcNAc(b1-3)Gal(b1-4)GlcNAc(b1-6)]Man(a1-6)[GlcNAc(b1-3)Gal(b1-4)GlcNAc(b1-2)Man(a1-3)]Man(b1-4)GlcNAc(b1-4)GlcNAc
In short: as §1

[22] = target: GlcNAc(b1-3)Gal(b1-4)GlcNAc(b1-3)Gal(b1-4)GlcNAc
In short: as §1

[23] = target: GlcNAc(b1-3)Gal(b1-4)GlcNAc(b1-3)Gal(b1-4)GlcNAc(b1-2)Man(a1-3)[GlcNAc(b1-3)Gal(b1-4)GlcNAc(b1-3)Gal(b1-4)GlcNAc(b1-2)Man(a1-6)]Man(b1-4)GlcNAc(b1-4)GlcNAc
In short: as §1

[24] = target: GlcNAc(b1-3)Gal(b1-4)GlcNAc(b1-3)Gal(b1-4)GlcNAc(b1-2)Man(a1-3)[GlcNAc(b1-3)Gal(b1-4)GlcNAc(b1-3)Gal(b1-4)GlcNAc(b1-2)Man(a1-6)]Man(b1-4)GlcNAc(b1-4)[Fuc(a1-6)]GlcNAc
In short: as §1

[25] = target: GlcNAc(b1-3)Gal(b1-4)GlcNAc(b1-3)Gal(b1-4)GlcNAc(b1-2)[GlcNAc(b1-3)Gal(b1-4)GlcNAc(b1-3)Gal(b1-4)GlcNAc(b1-6)]Man(a1-6)[GlcNAc(b1-3)Gal(b1-4)GlcNAc(b1-3)Gal(b1-4)GlcNAc(b1-2)Man(a1-3)]Man(b1-4)GlcNAc(b1-4)[Fuc(a1-6)]GlcNAc
In short: as §1

[26] = target: GlcNAc(b1-3)Gal(b1-4)GlcNAc(b1-3)Gal(b1-4)GlcNAc(b1-3)Gal(b1-4)GlcNAc(b1-2)Man(a1-3)[GlcNAc(b1-3)Gal(b1-4)GlcNAc(b1-3)Gal(b1-4)GlcNAc(b1-3)Gal(b1-4)GlcNAc(b1-2)Man(a1-6)]Man(b1-4)GlcNAc(b1-4)GlcNAc
In short: as §1

[27] = target: GlcNAc(b1-3)Gal(b1-4)GlcNAc(b1-3)Gal(b1-4)GlcNAc(b1-3)Gal(b1-4)GlcNAc(b1-2)Man(a1-3)[GlcNAc(b1-3)Gal(b1-4)GlcNAc(b1-3)Gal(b1-4)GlcNAc(b1-3)Gal(b1-4)GlcNAc(b1-2)Man(a1-6)]Man(b1-4)GlcNAc(b1-4)[Fuc(a1-6)]GlcNAc
In short: as §1

[28] = target: GlcNAc(b1-3)Gal(b1-4)GlcNAc(b1-3)Gal(b1-4)GlcNAc(b1-3)Gal(b1-4)GlcNAc(b1-2)[GlcNAc(b1-3)Gal(b1-4)GlcNAc(b1-3)Gal(b1-4)GlcNAc(b1-3)Gal(b1-4)GlcNAc(b1-6)]Man(a1-6)[GlcNAc(b1-3)Gal(b1-4)GlcNAc(b1-3)Gal(b1-4)GlcNAc(b1-3)Gal(b1-4)GlcNAc(b1-2)Man(a1-3)]Man(b1-4)GlcNAc(b1-4)[Fuc(a1-6)]GlcNAc
In short: as §1

[29] = target: GlcNAc(b1-3)Gal(b1-4)GlcNAc(b1-3)Gal(b1-4)GlcNAc(b1-3)Gal(b1-4)GlcNAc(b1-3)Gal(b1-4)GlcNAc(b1-2)Man(a1-3)[GlcNAc(b1-3)Gal(b1-4)GlcNAc(b1-3)Gal(b1-4)GlcNAc(b1-3)Gal(b1-4)GlcNAc(b1-3)Gal(b1-4)GlcNAc(b1-2)Man(a1-6)]Man(b1-4)GlcNAc(b1-4)GlcNAc
In short: as §1

[30] = target: GlcNAc(b1-3)Gal(b1-4)GlcNAc(b1-3)Gal(b1-4)GlcNAc(b1-3)Gal(b1-4)GlcNAc(b1-3)Gal(b1-4)GlcNAc(b1-2)Man(a1-3)[GlcNAc(b1-3)Gal(b1-4)GlcNAc(b1-3)Gal(b1-4)GlcNAc(b1-3)Gal(b1-4)GlcNAc(b1-3)Gal(b1-4)GlcNAc(b1-2)Man(a1-6)]Man(b1-4)GlcNAc(b1-4)[Fuc(a1-6)]GlcNAc
In short: as §1

[31] = target: GlcNAc(b1-3)Gal(b1-4)GlcNAc(b1-3)Gal(b1-4)GlcNAc(b1-3)Gal(b1-4)GlcNAc(b1-3)Gal(b1-4)GlcNAc(b1-2)[GlcNAc(b1-3)Gal(b1-4)GlcNAc(b1-3)Gal(b1-4)GlcNAc(b1-3)Gal(b1-4)GlcNAc(b1-3)Gal(b1-4)GlcNAc(b1-6)]Man(a1-6)[GlcNAc(b1-3)Gal(b1-4)GlcNAc(b1-3)Gal(b1-4)GlcNAc(b1-3)Gal(b1-4)GlcNAc(b1-3)Gal(b1-4)GlcNAc(b1-2)Man(a1-3)]Man(b1-4)GlcNAc(b1-4)[Fuc(a1-6)]GlcNAc
In short: as §1

[32] = target: GlcNAc(b1-3)Gal(b1-4)GlcNAc(b1-3)Gal(b1-4)GlcNAc(b1-3)GalNAc
In short: as §1

[33] = target: GlcNAc(b1-3)Gal(b1-4)GlcNAc(b1-3)GalNAc
In short: as §1

[34] = target: GlcNAc(b1-3)Gal(b1-4)GlcNAc(b1-3)[GlcNAc(b1-3)Gal(b1-4)GlcNAc(b1-3)]GalNAc
In short: as §1

[35] = target: GlcNAc(b1-3)Gal(b1-4)GlcNAc(b1-6)[Gal(b1-3)]GalNAc
In short: as §1

[36] = target: GlcNAc(b1-3)Gal(b1-4)GlcNAc(b1-6)[GlcNAc(b1-3)Gal(b1-3)]GalNAc
In short: as §1

[37] = target: GlcNAc(b1-3)Gal(b1-4)GlcNAc(b1-6)[GlcNAc(b1-3)]Gal(b1-4)GlcNAc
In short: as §1

B1: HA-61200 (Pseudomonas aeruginosa), Q02SP8_PSEAB (protein)
chain: MNKCYALVWNVSQGCWNVVSEGSRRRGKPAGAKAAIASVLALLGATALAPAYALPSGGTVVGGSANGEIHLSGGNSLSVNQKVDKLIANWDSFSVAAGERVIFNQPSSSSIALNRVIGTKASDIQGRIDANGQVFLVNPNGVLFGRGAQVNVGGLVASTLDITDAEFNGNSSRYRFTGPSTNGVLNHGGAITAAEGGSIALLGAQVDNRGTVLAQMGGVGLGAGSDLTLNFDGNKLLDIRVDAGVANALASNGGLLKADGGRVLMAARTANALLNTVVNSQGAIEARSLRGKNGRIVLDG
- glycan array binding signal (z-score) [1]: -0.238
- glycan array binding signal (z-score) [2]: -0.825
- glycan array binding signal (z-score) [3]: 0.303
- glycan array binding signal (z-score) [4]: -0.969
- glycan array binding signal (z-score) [5]: -0.594
- glycan array binding signal (z-score) [6]: -0.132
- glycan array binding signal (z-score) [7]: 0.556
- glycan array binding signal (z-score) [8]: -0.626
- glycan array binding signal (z-score) [9]: -0.698
- glycan array binding signal (z-score) [10]: -0.783
- glycan array binding signal (z-score) [11]: -0.12
- glycan array binding signal (z-score) [12]: 0.398
- glycan array binding signal (z-score) [13]: 0.1
- glycan array binding signal (z-score) [14]: 0.303
- glycan array binding signal (z-score) [15]: -0.322
- glycan array binding signal (z-score) [16]: 0.694
- glycan array binding signal (z-score) [17]: 0.255
- glycan array binding signal (z-score) [18]: -0.897
- glycan array binding signal (z-score) [19]: -0.641
- glycan array binding signal (z-score) [20]: -0.378
- glycan array binding signal (z-score) [21]: 0.934
- glycan array binding signal (z-score) [22]: 0.209
- glycan array binding signal (z-score) [23]: 1.04
- glycan array binding signal (z-score) [24]: 1.52
- glycan array binding signal (z-score) [25]: 0.581
- glycan array binding signal (z-score) [26]: -0.48
- glycan array binding signal (z-score) [27]: 1.42
- glycan array binding signal (z-score) [28]: 0.05
- glycan array binding signal (z-score) [29]: 0.298
- glycan array binding signal (z-score) [30]: 0.525
- glycan array binding signal (z-score) [31]: -0.457
- glycan array binding signal (z-score) [32]: -0.14
- glycan array binding signal (z-score) [33]: 0.291
- glycan array binding signal (z-score) [34]: 0.412
- glycan array binding signal (z-score) [35]: 0.163
- glycan array binding signal (z-score) [36]: -0.009
- glycan array binding signal (z-score) [37]: -0.8
